Measured values: PubChem BioAssay AID256 (DTP/NCI, 2004)
The list is a part of this screen's results and no random one: it gathers tests that were run many times, whatever their T/C, doses with no T/C, and many T/C values between a quarter and a half above the control. Other doses and runs of a compound stand elsewhere. T/C: endpoint of the treated group in % of that of the vehicle group. Some doses have a count of surviving animals in place of a T/C: the source holds a T/C of zero for them, seemingly a mark for toxic or unscored doses. Some doses without a T/C left all or most animals alive at the check, yet need not have been tolerated: survival well below the control is almost never listed, so the zero probably covers shortened survival too. Survivors were counted at the toxicity check, usually on the fifth day, unless a day is given; later deaths do not show. Schedule codes are those of the source, taken here to give the interval after Q, in days (D) or hours (H), and the number of doses after X. Where survival is the endpoint, the PubChem record calls one and a half times the control and up active, and a quarter to a half above the control has no call in these data; cut-offs in other NCI protocols can differ. Some T/C values are followed by the survivors on the day toxicity was checked, most often the fifth; where none is given, no animal had died by that day. Some doses were run more than once; the results are listed from low to high. Brackets with × stand for listed records that agree.

System: CD2F1 mice, L1210 leukemia ip, survival T/C
Assay: NCI In Vivo Anticancer Drug Screen. Data for tumor model L1210 Leukemia (intraperitoneal) in CD2F1 (CDF1) mice
Conditions: T/C endpoint: median survival time, higher T/C = longer survival
How it was run: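 Ratio T/C, where T is the treated-group value and C the vehicle-dosed control value, from mice implanted with a transplantable tumor.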

In the case of `COc1cccc2c1C(=O)c1c(O)c3c(c(O)c1C2=O)C[C@@](O)(C(=O)CO)C[C@@H]3OC1CC(N)C(O)C(C)O1` (stereo partly drawn), the T/C (dose: 2.0 mg/kg/injection, schedule: Q01DX005 (iv), vehicle: water) is reported as 125 % of control, the T/C (dose: 2.0 mg/kg/injection, schedule: Q01DX009 (ip), vehicle: saline, evaluated on day 5) is reported as 130 and 168 % of control [4 of 6 alive] and the T/C (dose: 2.0 mg/kg/injection, schedule: Q01DX009 (ip), vehicle: saline, evaluated on day 30) is reported as 156 and 200 % of control. For the same compound, the T/C (dose: 2.0 mg/kg/injection, schedule: Q04DX003 (ip), vehicle: saline) was 143 % of control, the T/C (dose: 2.0 mg/kg/injection, schedule: Q04DX003 (ip), vehicle: water) was 134 % of control and the T/C (dose: 2.4 mg/kg/injection, schedule: Q01DX001 (ip), vehicle: saline) was 125 and 139 % of control. For the same compound, the T/C (dose: 2.5 mg/kg/injection, schedule: Q01DX001 (ip), vehicle: saline, evaluated on day 5) was 143 % of control, the T/C (dose: 2.5 mg/kg/injection, schedule: Q01DX001 (ip), vehicle: saline, evaluated on day 45) was 138 % of control and the T/C (dose: 3.0 mg/kg/injection, schedule: Q04DX003 (ip), vehicle: water, evaluated on day 5) was 131 % of control. For the same compound, the T/C (dose: 3.0 mg/kg/injection, schedule: Q04DX003 (ip), vehicle: water, evaluated on day 61) was 131 % of control, the T/C (dose: 3.5 mg/kg/injection, schedule: Q01DX001 (ip), vehicle: saline) was 134 % of control and the T/C (dose: 3.6 mg/kg/injection, schedule: Q01DX001 (ip), vehicle: saline) was 129 % of control. For the same compound, the T/C (dose: 4.0 mg/kg/injection, schedule: Q01DX001 (ip), vehicle: saline, evaluated on day 6) was 104, 107, 117, 128 (2×), 131 % of control, the T/C (dose: 4.0 mg/kg/injection, schedule: Q01DX001 (ip), vehicle: saline, evaluated on day 11) was 104, 107, 117, 128 (2×), 131 % of control and the T/C (dose: 4.0 mg/kg/injection, schedule: Q01DX001 (ip), vehicle: water, evaluated on day 5) was 141 % of control. The T/C (dose: 4.0 mg/kg/injection, schedule: Q01DX001 (ip), vehicle: water, evaluated on day 33) was 141 % of control, the T/C (dose: 4.0 mg/kg/injection, schedule: Q01DX005 (ip), vehicle: water) was 137 % of control and the T/C (dose: 4.0 mg/kg/injection, schedule: Q01DX005 (iv), vehicle: water) was 137 % of control. For the same compound, the T/C (dose: 4.0 mg/kg/injection, schedule: Q01DX009 (ip), vehicle: saline, evaluated on day 5) was 95 and 101 % of control, the T/C (dose: 4.0 mg/kg/injection, schedule: Q01DX009 (ip), vehicle: saline, evaluated on day 30) was 121 and 147 % of control and the T/C (dose: 4.0 mg/kg/injection, schedule: Q04DX003 (ip), vehicle: water) was 146 % of control. For the same compound, the T/C (dose: 5.8 mg/kg/injection, schedule: Q01DX001 (ip), vehicle: saline, evaluated on day 5) was 144 % of control, the T/C (dose: 5.8 mg/kg/injection, schedule: Q01DX001 (ip), vehicle: saline, evaluated on day 6) was 147 % of control and the T/C (dose: 6.0 mg/kg/injection, schedule: Q01DX001 (ip), vehicle: saline) was 131 % of control. The T/C (dose: 8.0 mg/kg/injection, schedule: Q01DX001 (ip), vehicle: saline, evaluated on day 5) was 110 % of control, the T/C (dose: 8.0 mg/kg/injection, schedule: Q01DX001 (ip), vehicle: saline, evaluated on day 6) was 106, 111, 122, 130 (2×), 139 % of control and the T/C (dose: 8.0 mg/kg/injection, schedule: Q01DX001 (ip), vehicle: saline, evaluated on day 11) was 106, 111, 122, 130 (2×), 139 % of control. For the same compound, the T/C (dose: 8.0 mg/kg/injection, schedule: Q01DX001 (ip), vehicle: water, evaluated on day 5) was 141 % of control, the T/C (dose: 8.0 mg/kg/injection, schedule: Q01DX001 (ip), vehicle: water, evaluated on day 33) was 141 % of control and the T/C (dose: 8.0 mg/kg/injection, schedule: Q01DX001 (iv), vehicle: water, evaluated on day 5) was 140 % of control. The T/C (dose: 8.0 mg/kg/injection, schedule: Q01DX001 (iv), vehicle: water, evaluated on day 33) was 140 % of control, the T/C (dose: 10.0 mg/kg/injection, schedule: Q01DX001 (ip), vehicle: saline, evaluated on day 5) was 129, 179, 183 % of control and the T/C (dose: 10.0 mg/kg/injection, schedule: Q01DX001 (ip), vehicle: saline, evaluated on day 45) was 172 % of control. The T/C (dose: 10.0 mg/kg/injection, schedule: Q04DX003 (ip), vehicle: saline) was 131 % of control, the survivor count (dose: 14.0 mg/kg/injection, schedule: Q04DX003 (ip), vehicle: water) was 8 of 8 and the T/C (dose: 16.0 mg/kg/injection, schedule: Q01DX001 (ip), vehicle: saline, evaluated on day 5) was 172 % of control. For the same compound, the T/C (dose: 16.0 mg/kg/injection, schedule: Q01DX001 (ip), vehicle: saline, evaluated on day 6) was 85 [4 of 5 alive], 114, 121, 131, 141, 149, 160 % of control, the T/C (dose: 16.0 mg/kg/injection, schedule: Q01DX001 (ip), vehicle: saline, evaluated on day 11) was 114, 121, 131, 141, 149, 160 % of control and the survivor count (dose: 16.0 mg/kg/injection, schedule: Q01DX001 (ip), vehicle: water) was 6 of 8. The survivor count (dose: 16.0 mg/kg/injection, schedule: Q01DX009 (ip), vehicle: saline) was 6 of 6, the survivor count (dose: 20.0 mg/kg/injection, schedule: Q01DX001 (ip), vehicle: saline) was 9 of 10 and the survivor count (dose: 32.0 mg/kg/injection, schedule: Q01DX001 (iv), vehicle: water) was 5 of 8. For the same compound, the survivor count (dose: 40.0 mg/kg/injection, schedule: Q01DX001 (ip), vehicle: saline) was 3 of 10.
